Measurements reported in US20110262025A1, “Cosmetic Compositions and Methods for Maintaining and Improving Barrier Function of the Stratum Corneum and to Reduce the Visible Signs of Aging in Skin” (priority 2010, published 2011).
At least one compound was matched to its structure with a doubt left.

Experiments:
Type in all cases: cell-based, human
[1] = system: EPI-201 model; assay: Gene expression by realtime PCR in skin equivalent; settings: EPI-201, 24 h, Dex 100 nM
[2] = system: EPI-200 model; assay: Gene expression by realtime PCR in skin equivalent; settings: EPI-200, 24 h, Dex 100 nM
[3] = system: pro-caspase-14, EPI-201 model; assay: Western blot of pro-caspase-14 expression; settings: EPI-201, 100 nM Dex or 25% GFF, 24 h
[4] = system: pro-caspase-14, EPI-200 model; assay: Western blot of pro-caspase-14 expression; settings: EPI-200, 100 nM Dex or 25% GFF, 24 h
[5] = system: caspase-14, EPI-201 model; assay: Enzymatic activity of caspase-14 with WEHD-pNA as substrate; settings: EPI-201, 100 nM Dex or 25% GFF, 24 h
[6] = system: caspase-14 in EPI models; assay: Induction mechanism of caspase-14 in presence of RU-486; settings: 24 h, both skin equivalent models

| SMILES | expression of caspase-14 (Cas-14) [1] | gene expression of Cas-14 [2] | pro-caspase-14 (Western blot) [3] | caspase-14 induction (Western blot) [4] | caspase-14 activity [5] | effect of RU-486 on the effects of Dex (caspase-14 induction) ([6]; 1 mM RU-486, 100 nM Dex) | effect of RU-486 on the effects of GFF (caspase-14 induction) ([6]; 1 mM RU-486, 25% GFF) |
| --- | --- | --- | --- | --- | --- | --- | --- |
| C[C@@H]1C[C@H]2[C@@H]3CCC4=CC(=O)C=C[C@]4(C)[C@@]3(F)[C@@H](O)C[C@]2(C)[C@@]1(O)C(=O)CO [Dex, Dexamethasone] | increased | induce | increased | not induced significantly | increased by GFF or Dex, though not significantly | – | – |
| CC#C[C@]1(O)CC[C@H]2[C@@H]3CCC4=CC(=O)CCC4=C3[C@@H](c3ccc(N(C)C)cc3)C[C@@]21C [RU-486] | – | – | – | – | – | inhibited | not |
